Results deposited as PubChem BioAssay AID504784 (Drosophila RNAi Screening Center, 2011).
The screen tested about 17,000 reagents; below is an unselected part of those with a known target gene and a result. 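Each column is one replicate's B-score; the combined score over replicates was not deposited, so single values may mislead.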 Names joined by + are all predicted targets of the reagent. Not all columns of the deposit are shown.

Screen: 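Search for regulators of lipid droplet storage in oleate-fed fly cells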 (primary screen)
System: Drosophila Kc167 embryonic cells
Reagent: long dsRNA against Drosophila genes, about 250 ng dsRNA per well
Time to read-out: 4 days
Conditions: cells fed 400 µM oleic acid bound to BSA
Read-out: 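Cells imaged and segmented; ratio of lipid droplet area to nuclear area, log-transformed, then normalised as a B-score over the screen; higher means more stored lipid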
Direction: droplet/nuclear area B-score: higher = more stored lipid (overstorage)

target gene | dsRNA | droplet/nuclear area B-score, replicate 1 | droplet/nuclear area B-score, replicate 2
CG42634 + CG42635 | DRSC02450 | 1.64 | 0.388
CG13390 | DRSC02261 | 0.787 | -0.143
CG14191 | DRSC19546 | 2.81 | -0.292
slif | DRSC11635 | -1.52 | -0.393
Cep290 | DRSC08359 | -1.56 | -1.13
CG31729 | DRSC02524 | -0.407 | 0.153
CG31729 | DRSC02946 | -1.43 | -0.517
CG32109 | DRSC09816 | -0.755 | 0.289
Zip88E | DRSC15562 | 0.0899 | -0.217
lncRNA:CR30009 | DRSC22952 | 1.13 | -0.954
Cul6 | DRSC09830 | -0.503 | 1.6
Kaz-m1 | DRSC16990 | -0.518 | 0.099
CG3634 | DRSC11747 | 0.327 | -0.424
Dark | DRSC05922 | -1.33 | 0.0009
Crtc | DRSC10578 | -0.856 | -2.63
Crtc | DRSC23130 | 0.022 | 0.962
Prp4k | DRSC08144 | -0.0128 | 0.53
CG13323 | DRSC06360 | -1.87 | 0.443
CG31898 | DRSC01019 | 0.0663 | -0.111
CG12241 | DRSC14481 | 0.0591 | 1.01
Tim17b1 | DRSC12179 | 1.46 | 1.63
ERp60 | DRSC07309 | -0.572 | 1.28
CAH13 | DRSC06128 | 11.2 | -1.38
sktl | DRSC04715 | -1.06 | -1.43
e(r) | DRSC18768 | -0.139 | 1.11
Glut3 | DRSC16681 | -0.0161 | -1.5
SkpF + CG5357 (retired record) | DRSC04120 | 1.31 | 0.0981
CG14655 | DRSC12241 | 0.784 | -0.00319
Tnks | DRSC14154 | -1.15 | 0.142
Ugt303B2 | DRSC14198 | -0.299 | 0.163
Ugt303B2 | DRSC22864 | 1.36 | 0.198
GstD1 | DRSC16683 | -0.532 | -0.818
PIG-Wb | DRSC08526 | -0.535 | 1.64
Src64B | DRSC08700 | 1.46 | 1.06
CG8155 | DRSC07084 | 0.199 | -0.0807
CG8155 | DRSC21543 | -0.353 | -0.0165
CG4036 | DRSC02735 | -1.66 | 0.702
Ppa | DRSC04598 | -2.7 | 1.11
CG1965 | DRSC12577 | – | -0.295
CG1965 | DRSC21828 | -0.0204 | -3.49
Tengl3 | DRSC22288 | -0.561 | 0.314
CG16888 | DRSC02541 | 0.516 | 0.703
Gr93c | DRSC14587 | -0.0647 | -0.114
CG4080 | DRSC10398 | -0.24 | -1.6
Hand | DRSC02656 | -1.57 | -1.18
sha | DRSC06331 | 0.0386 | -1.94
CG32188 | DRSC09510 | -0.0571 | -0.332
Liprin-beta | DRSC09795 | 0.893 | 1.22
Liprin-beta | DRSC23339 | 0.779 | -0.913
CG30288 | DRSC22005 | -0.259 | -0.0467
rtv | DRSC19541 | -0.286 | 0.0537
CG32036 | DRSC10362 | -0.565 | 0.912
brn | DRSC18746 | 0.632 | –
lncRNA:CR32660 | DRSC22965 | -1.2 | -0.553
CG33253 | DRSC19547 | 0.268 | 0.0509
CG33253 | DRSC20053 | -0.553 | -0.399
Tcs6 + PIG-P | DRSC13742 | 0.999 | -1.56
Tcs6 + PIG-P | DRSC14893 | -1.1 | 1.36
l(3)05822 | DRSC16202 | -1.98 | -0.192
CG3457 | DRSC18509 | 2.31 | -0.681
CG11044 | DRSC06026 | 0.258 | 0.869
H15 | DRSC03339 | -2.5 | 2.27
H15 | DRSC22199 | 0.00246 | -1.67
qin | DRSC14782 | -2.07 | -2.44
ND6 (retired record) | DRSC21271 | -1.88 | 1.31
CR18217 | DRSC21506 | -1.39 | 0.507
CG4763 | DRSC04009 | -1.44 | -0.539
CG4763 | DRSC04487 | 0.289 | -0.688
vg | DRSC07715 | 0.0471 | -0.621
vg | DRSC22669 | -0.836 | 0.218
alpha-Catr | DRSC04669 | -0.204 | -0.373
CG11327 | DRSC02146 | 0.266 | -1.65
CG9674 | DRSC11088 | -0.142 | 0.169
CG9674 | DRSC11089 | -1.21 | -1.98
Sf3b2 | DRSC00619 | -3.06 | -1.61
CG14356 | DRSC14819 | 0.0228 | 0.11
ASPP | DRSC04305 | 1.66 | 4.58
ASPP | DRSC23069 | -1.21 | 1.47
dmGlut | DRSC02835 | -0.159 | -0.319
CG11893 | DRSC14429 | 0.0004 | -0.337
kis | DRSC00521 | -1.05 | 1.44
kis | DRSC00625 | -1.2 | 2.75
kis | DRSC00823 | 1.85 | 0.692
PDZ-GEF | DRSC03231 | -1.59 | 0.788
Iml1 | DRSC08249 | 0.0203 | –
Sgf11 | DRSC09987 | 1.28 | -1.14
NetB | DRSC20262 | 2.65 | 2.19
CG8314 | DRSC07144 | 0.00497 | -0.09
CG7379 | DRSC16237 | -0.361 | -0.672
CG11638 | DRSC18167 | -1.76 | -0.531
CG11638 | DRSC18640 | 0.295 | 0.161
CG4287 | DRSC15559 | -1.18 | -1.66
Ir75a | DRSC10188 | 0.343 | 0.98
fred | DRSC00349 | 0.0117 | 0.473
fred | DRSC00599 | -1.49 | -1.61
fred | DRSC00601 | -0.334 | -0.492
fred | DRSC00602 | 0.819 | 1.8
fred | DRSC21906 | 2.43 | 2.39
CG6168 | DRSC10596 | 0.0107 | 0.568
CG43693 | DRSC09086 | -0.896 | 0.579
CG43693 | DRSC10625 | 2.01 | 1.3
Cyp313a1 | DRSC16624 | 0.0759 | -0.503
emc | DRSC08715 | -0.157 | 0.449
emc | DRSC23238 | 2.48 | 1.46
CG12546 | DRSC11676 | -1.81 | -2.55
